To fix the notation:
T1: His-tagged RidA_(HOCl) (E. coli) (UniProt P0AF93)
T1 sequence (chain, treated with a 10-fold excess of HOCl (N-chlorination; positions not mapped)): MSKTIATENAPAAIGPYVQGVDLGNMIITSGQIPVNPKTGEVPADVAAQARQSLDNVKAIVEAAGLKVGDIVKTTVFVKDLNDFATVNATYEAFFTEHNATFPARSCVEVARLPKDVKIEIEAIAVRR

Amino acid sequences for entries named in this document (tags omitted).
UniProt P0A850: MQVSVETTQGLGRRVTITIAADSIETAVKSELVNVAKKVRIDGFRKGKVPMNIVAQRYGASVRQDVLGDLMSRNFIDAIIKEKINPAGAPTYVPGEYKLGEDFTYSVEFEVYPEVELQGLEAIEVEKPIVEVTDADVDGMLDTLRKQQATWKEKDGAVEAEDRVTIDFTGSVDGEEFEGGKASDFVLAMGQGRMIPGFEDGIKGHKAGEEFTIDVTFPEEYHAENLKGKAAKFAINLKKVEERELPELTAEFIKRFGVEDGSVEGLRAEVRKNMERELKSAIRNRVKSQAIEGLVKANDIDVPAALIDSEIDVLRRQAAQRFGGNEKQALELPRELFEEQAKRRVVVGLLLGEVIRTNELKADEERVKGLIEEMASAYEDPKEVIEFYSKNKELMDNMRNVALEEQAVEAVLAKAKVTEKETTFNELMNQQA
UniProt P0ACD4: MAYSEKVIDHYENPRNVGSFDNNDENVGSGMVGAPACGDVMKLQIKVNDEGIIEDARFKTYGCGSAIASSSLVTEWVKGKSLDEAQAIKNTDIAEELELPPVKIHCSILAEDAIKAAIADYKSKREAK

B1: YifE (protein, UniProt P0ADN2 1-112)
chain: MAESFTTTNRYFDNKHYPRGFSRHGDFTIKEAQLLERHGYAFNELDLGKREPVTEEEKLFVAVCRGEREPVTEAERVWSKYMTRIKRPKRFHTLSGGKPQVEGAEDYTDSDD
B2: HupB (protein, UniProt P0ACF4 1-90)
chain: MNKSQLIDKIAAGADISKAAAGRALDAIIASVTESLKEGDDVALVGFGTFAVKERAARTGRNPQTGKEITIAAAKVPSFRAGKALKDAVN
B3: RhmD (protein, UniProt P77215 1-401)
chain: MTLPKIKQVRAWFTGGATAEKGAGGGDYHDQGANHWIDDHIATPMSKYRDYEQSRQSFGINVLGTLVVEVEAENGQTGFAVSTAGEMGCFIVEKHLNRFIEGKCVSDIKLIHDQMLSATLYYSGSGGLVMNTISCVDLALWDLFGKVVGLPVYKLLGGAVRDEIQFYATGARPDLAKEMGFIGGKMPTHWGPHDGDAGIRKDAAMVADMREKCGEDFWLMLDCWMSQDVNYATKLAHACAPYNLKWIEECLPPQQYESYRELKRNAPVGMMVTSGEHHGTLQSFRTLSETGIDIMQPDVGWCGGLTTLVEIAAIAKSRGQLVVPHGSSVYSHHAVITFTNTPFSEFLMTSPDCSTMRPQFDPILLNEPVPVNGRIHKSVLDKPGFGVELNRDCNLKRPYSH
B4: uracil phosphoribosyltransferase Upp (protein, UniProt P0A8F0 1-208)
chain: MKIVEVKHPLVKHKLGLMREQDISTKRFRELASEVGSLLTYEATADLETEKVTIEGWNGPVEIDQIKGKKITVVPILRAGLGMMDGVLENVPSARISVVGMYRNEETLEPVPYFQKLVSNIDERMALIVDPMLATGGSVIATIDLLKKAGCSSIKVLVLVAAPEGIAALEKAHPDVELYTASIDQGLNEHGYIIPGLGDAGDKIFGTK

Results are given in words; binding and its absence hold for the method and conditions named. In cells and extracts the contact can be indirect. These calls come from enrichment with a bait or labelling near it, and not all partners need be listed. Tags and fused reporters may be left off the sequences shown.

This test deals with T1, His-tagged RidA_(HOCl) (E. coli). The test can be described thus: affinity purification with mass spectrometry; as the pull-down; pooled and concentrated washing fractions four to six (with or without DTT), tryptic digest, nanoUPLC and Synapt G2-S MS^E; only the target purified.
Consider “trigger factor (from UniProt P0A850 1-432)”, for which the binding entry is “binds”.
Turning to “thioredoxin 1 (TrxA) (from UniProt P0AA25 1-109)”, the binding result is recorded as “binds”.
Take “FkbA (E. coli (endogenous in MG1655 ΔridA))”: the binding entry is “binds”.
As for “iron sulfur cluster assembly scaffold protein IscU (from UniProt P0ACD4 1-128)”, the entry is “binds”.
As for B1, the entry is “binds”; as for B2, “binds”; as for B3, “binds”.
Next, B4: “binds”.

The record behind these values is PMC4284807, “Activation of RidA chaperone function by N-chlorination” (Nature Communications, 2014).
